The list shows a part of the results.
Legend:
Assay in all cases: log2 fold change, soluble protein after heating vs DMSO (PISA); higher = thermal stabilisation; K562 cells, 10 uM, 30 min; active = over 0.2 and 3.5 SD of the protein, either way, in both replicates (recomputed)
[1] = compound: COC1=CC=C(C=C1)CN2C=CC3=C2C=C(C=C3)C(=O)NO
In short: (§1)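 Values are thermal stability changes relative to control samples and are taken from duplicates. They are stated as log2 fold changes. Before quantification by TMTpro 16plex LC-MS/MS with equalised channel sums, K562 cells at 2×10^6 cells/mL were treated with 10 μM compound for 30 min, heated in aliquots for 3 min across 48°C-58°C, pooled, extracted in PBS with 0.5% NP-40 at 4°C, and centrifuged at 21,000xg for 90 min to give the soluble supernatant.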

The chains behind the UniProt entries cited, without tags or fusion partners. Where a name states a change or a piece, a line headed by the entry shows the natural chain unless it says otherwise.
UniProt Q01831: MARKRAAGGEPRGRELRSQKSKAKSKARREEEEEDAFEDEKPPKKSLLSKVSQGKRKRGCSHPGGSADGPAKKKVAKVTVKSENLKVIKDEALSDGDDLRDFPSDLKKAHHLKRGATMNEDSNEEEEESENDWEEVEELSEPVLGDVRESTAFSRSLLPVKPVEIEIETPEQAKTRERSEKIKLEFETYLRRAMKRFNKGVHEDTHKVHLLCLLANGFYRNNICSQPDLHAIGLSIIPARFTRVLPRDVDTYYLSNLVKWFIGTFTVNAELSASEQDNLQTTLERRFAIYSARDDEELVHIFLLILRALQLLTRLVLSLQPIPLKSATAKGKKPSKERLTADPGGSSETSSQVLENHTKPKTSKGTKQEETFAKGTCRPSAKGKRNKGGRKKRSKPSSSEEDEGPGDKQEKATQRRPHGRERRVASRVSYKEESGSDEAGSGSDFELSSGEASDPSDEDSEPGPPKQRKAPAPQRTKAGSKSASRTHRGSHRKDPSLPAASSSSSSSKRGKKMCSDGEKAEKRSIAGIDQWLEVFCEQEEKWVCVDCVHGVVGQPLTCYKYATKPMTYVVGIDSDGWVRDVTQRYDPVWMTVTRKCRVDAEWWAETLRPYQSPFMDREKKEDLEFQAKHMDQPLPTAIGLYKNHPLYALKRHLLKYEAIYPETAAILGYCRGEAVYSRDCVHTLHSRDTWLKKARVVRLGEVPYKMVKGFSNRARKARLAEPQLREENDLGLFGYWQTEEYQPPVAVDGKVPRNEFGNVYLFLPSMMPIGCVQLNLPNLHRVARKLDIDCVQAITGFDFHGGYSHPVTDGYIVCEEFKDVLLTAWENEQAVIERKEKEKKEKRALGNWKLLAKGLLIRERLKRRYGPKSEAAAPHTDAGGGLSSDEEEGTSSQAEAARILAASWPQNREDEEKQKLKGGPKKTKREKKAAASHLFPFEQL
UniProt Q8IZN3: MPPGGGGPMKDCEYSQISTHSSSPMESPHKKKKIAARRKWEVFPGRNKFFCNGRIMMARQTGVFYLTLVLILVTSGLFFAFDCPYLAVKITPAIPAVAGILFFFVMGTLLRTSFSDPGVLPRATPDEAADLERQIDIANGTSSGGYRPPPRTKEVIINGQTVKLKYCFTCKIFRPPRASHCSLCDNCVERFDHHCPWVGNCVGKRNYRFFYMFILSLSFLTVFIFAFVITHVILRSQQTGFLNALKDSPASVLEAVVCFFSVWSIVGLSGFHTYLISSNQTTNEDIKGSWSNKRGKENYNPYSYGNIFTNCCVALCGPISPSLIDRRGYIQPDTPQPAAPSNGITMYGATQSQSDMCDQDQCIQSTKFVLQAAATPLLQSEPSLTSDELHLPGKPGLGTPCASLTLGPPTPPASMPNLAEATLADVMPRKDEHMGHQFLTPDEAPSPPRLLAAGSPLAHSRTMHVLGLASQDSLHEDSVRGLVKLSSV
UniProt Q9H6S0: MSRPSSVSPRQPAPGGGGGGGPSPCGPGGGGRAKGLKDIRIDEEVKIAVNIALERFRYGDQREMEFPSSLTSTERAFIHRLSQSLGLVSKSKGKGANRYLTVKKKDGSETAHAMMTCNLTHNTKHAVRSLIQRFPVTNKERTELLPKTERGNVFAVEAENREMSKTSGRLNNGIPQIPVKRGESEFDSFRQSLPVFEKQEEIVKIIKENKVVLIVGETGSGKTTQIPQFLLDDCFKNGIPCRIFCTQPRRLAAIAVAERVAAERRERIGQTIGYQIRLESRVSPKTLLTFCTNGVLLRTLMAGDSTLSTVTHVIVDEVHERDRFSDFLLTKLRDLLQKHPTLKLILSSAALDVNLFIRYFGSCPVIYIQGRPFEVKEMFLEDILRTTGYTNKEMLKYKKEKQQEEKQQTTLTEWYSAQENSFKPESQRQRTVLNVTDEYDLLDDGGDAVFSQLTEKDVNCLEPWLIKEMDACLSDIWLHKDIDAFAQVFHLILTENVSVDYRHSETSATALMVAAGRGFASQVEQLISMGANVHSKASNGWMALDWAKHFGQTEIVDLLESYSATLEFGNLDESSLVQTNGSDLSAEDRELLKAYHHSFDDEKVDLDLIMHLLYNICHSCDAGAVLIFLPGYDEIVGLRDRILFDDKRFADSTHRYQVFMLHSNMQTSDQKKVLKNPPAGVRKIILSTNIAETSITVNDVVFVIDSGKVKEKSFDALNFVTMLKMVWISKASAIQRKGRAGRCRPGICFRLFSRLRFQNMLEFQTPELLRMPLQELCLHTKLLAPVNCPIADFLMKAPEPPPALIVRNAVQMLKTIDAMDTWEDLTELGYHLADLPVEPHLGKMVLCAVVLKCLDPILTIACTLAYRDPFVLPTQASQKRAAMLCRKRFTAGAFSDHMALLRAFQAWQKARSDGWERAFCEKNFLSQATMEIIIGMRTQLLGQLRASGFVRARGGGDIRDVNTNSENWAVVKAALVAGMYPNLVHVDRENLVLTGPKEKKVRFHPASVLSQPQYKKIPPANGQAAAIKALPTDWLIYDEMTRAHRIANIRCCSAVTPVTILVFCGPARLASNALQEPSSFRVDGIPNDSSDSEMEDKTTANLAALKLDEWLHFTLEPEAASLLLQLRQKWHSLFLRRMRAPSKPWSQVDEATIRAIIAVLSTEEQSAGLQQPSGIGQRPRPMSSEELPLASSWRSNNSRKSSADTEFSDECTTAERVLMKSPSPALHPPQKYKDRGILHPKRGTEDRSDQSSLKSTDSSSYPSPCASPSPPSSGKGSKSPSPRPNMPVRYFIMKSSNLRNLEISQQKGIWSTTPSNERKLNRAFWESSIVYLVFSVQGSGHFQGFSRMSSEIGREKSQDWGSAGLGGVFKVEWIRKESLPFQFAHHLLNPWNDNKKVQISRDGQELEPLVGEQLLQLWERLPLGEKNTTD
UniProt Q86UP3: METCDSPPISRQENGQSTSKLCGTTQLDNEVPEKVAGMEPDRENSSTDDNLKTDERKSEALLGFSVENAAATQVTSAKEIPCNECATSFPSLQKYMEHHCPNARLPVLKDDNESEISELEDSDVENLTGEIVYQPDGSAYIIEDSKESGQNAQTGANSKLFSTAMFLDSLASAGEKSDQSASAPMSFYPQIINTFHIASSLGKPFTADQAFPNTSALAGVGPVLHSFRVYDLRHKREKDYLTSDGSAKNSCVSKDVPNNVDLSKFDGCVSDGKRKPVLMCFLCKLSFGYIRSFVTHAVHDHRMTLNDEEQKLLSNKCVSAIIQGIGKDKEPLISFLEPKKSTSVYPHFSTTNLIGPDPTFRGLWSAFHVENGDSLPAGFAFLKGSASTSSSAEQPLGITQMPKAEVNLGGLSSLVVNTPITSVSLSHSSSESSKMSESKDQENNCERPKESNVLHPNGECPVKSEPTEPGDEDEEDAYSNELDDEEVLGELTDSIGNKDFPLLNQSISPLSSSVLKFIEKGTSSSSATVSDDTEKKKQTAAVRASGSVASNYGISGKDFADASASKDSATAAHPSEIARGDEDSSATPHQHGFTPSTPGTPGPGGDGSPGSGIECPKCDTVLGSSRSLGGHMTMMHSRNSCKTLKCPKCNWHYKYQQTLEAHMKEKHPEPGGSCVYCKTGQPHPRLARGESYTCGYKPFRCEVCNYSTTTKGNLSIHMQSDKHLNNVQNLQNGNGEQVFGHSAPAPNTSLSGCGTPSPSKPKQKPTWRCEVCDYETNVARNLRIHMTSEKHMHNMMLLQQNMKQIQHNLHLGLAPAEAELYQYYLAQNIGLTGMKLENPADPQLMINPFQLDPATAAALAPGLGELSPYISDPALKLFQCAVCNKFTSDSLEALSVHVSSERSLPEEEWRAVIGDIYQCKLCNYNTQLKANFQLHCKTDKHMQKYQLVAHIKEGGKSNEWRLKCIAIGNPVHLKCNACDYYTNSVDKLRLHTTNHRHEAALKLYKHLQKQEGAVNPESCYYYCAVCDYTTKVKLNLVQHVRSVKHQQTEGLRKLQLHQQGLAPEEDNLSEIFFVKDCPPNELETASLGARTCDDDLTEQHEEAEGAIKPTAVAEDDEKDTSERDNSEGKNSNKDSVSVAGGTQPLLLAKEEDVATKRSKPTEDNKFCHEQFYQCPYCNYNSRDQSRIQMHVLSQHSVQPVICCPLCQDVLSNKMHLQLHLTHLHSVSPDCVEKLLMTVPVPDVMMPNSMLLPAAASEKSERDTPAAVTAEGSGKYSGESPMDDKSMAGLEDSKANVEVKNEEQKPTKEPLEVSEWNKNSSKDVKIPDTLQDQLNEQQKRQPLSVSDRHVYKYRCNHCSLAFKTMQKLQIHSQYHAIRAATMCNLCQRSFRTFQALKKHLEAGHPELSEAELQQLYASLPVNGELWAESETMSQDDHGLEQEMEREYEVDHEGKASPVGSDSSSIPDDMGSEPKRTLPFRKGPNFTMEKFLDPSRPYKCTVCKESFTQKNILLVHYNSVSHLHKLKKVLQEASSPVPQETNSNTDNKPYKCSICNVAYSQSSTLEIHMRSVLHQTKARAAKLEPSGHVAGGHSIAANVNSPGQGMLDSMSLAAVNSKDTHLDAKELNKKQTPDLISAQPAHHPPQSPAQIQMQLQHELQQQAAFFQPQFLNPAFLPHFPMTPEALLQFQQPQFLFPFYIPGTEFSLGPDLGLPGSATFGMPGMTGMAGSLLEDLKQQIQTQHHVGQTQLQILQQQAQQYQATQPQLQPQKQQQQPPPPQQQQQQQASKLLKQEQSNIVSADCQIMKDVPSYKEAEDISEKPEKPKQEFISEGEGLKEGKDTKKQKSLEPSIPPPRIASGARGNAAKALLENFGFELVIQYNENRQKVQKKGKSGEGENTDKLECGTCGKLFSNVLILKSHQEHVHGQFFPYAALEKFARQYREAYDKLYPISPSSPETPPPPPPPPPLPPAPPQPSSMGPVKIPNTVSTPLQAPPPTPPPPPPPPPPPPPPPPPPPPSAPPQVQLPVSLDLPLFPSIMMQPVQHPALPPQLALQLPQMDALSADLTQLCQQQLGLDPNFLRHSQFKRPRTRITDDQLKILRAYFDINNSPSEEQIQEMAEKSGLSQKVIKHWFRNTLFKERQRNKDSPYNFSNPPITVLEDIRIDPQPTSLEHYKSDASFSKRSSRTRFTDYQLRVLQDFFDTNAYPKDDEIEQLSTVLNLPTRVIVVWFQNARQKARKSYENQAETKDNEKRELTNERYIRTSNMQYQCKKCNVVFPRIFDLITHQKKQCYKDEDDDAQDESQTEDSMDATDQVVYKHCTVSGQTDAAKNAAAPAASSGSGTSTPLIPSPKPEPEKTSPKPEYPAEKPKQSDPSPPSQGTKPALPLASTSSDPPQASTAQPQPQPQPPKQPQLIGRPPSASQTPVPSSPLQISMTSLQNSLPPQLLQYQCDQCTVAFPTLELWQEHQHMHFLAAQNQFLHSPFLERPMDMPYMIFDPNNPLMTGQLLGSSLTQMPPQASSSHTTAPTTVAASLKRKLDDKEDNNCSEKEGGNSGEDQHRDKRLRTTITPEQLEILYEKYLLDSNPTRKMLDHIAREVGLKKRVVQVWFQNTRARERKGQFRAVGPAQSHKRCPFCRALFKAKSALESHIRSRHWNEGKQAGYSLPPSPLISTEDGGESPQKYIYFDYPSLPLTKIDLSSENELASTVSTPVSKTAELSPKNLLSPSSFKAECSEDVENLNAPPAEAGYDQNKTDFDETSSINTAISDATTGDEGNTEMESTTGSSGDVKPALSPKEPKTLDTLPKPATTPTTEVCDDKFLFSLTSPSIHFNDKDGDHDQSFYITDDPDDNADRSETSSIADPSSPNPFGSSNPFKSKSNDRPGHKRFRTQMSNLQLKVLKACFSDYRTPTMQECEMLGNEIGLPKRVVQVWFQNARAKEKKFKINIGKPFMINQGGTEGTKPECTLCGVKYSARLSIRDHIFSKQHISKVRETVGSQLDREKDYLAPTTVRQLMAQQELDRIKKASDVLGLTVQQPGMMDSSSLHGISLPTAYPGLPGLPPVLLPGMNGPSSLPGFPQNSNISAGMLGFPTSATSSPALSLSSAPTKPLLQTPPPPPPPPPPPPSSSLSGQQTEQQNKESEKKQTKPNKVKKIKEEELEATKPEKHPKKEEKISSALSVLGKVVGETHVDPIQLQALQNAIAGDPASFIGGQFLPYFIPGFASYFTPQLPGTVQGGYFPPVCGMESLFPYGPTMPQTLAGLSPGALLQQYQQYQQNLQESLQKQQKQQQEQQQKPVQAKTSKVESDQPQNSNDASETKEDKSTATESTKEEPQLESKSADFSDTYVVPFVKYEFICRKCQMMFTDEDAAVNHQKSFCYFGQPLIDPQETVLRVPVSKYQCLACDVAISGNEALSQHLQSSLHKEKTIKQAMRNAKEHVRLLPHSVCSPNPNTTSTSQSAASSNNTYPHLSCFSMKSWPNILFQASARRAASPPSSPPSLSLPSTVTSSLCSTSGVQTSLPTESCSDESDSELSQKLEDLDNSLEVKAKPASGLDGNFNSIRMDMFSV

[2] = compound: CO[C@H]1C[C@@H]2CC[C@@H](C)[C@@](O)(O2)C(=O)C(=O)N2CCCC[C@H]2C(=O)O[C@H]([C@H](C)C[C@@H]2CC[C@H](n3cnnn3)[C@H](OC)C2)CC(=O)[C@H](C)/C=C(\C)[C@@H](O)[C@@H](OC)C(=O)[C@H](C)C[C@H](C)/C=C/C=C/C=C/1C [zotarolimus]
In short: as §1

[3] = compound: COc1cc(C(=O)O)ccc1NC(=O)[C@@H]1N[C@@H](CC(C)(C)C)[C@](C#N)(c2ccc(Cl)cc2F)[C@H]1c1cccc(Cl)c1F [idasanutlin]
In short: as §1

[4] = compound: COc1cc2nc(-c3cc(F)ccc3O)nc(N[C@@H]3CNC[C@H]3C(C)(C)O)c2cc1OC
In short: as §1

[5] = compound: CS(=O)(=O)CCNCc1ccc(-c2ccc3ncnc(Nc4ccc(OCc5cccc(F)c5)c(Cl)c4)c3c2)o1 [lapatinib]
In short: as §1

[6] = compound: C[C@@H](Oc1cc(-c2cnn(C3CCNCC3)c2)cnc1N)c1c(Cl)ccc(F)c1Cl [crizotinib]
In short: as §1

[7] = compound: C[C@@H]1COCCN1C2=NC(=NC(=C2)C3(CC3)S(=O)(=O)C)C4=C5C=CNC5=CC=C4
In short: as §1

[8] = compound: C[C@H](C1=CC=C(C=C1)C(=O)NC2=C3C=CNC3=NC=C2)N
In short: as §1

[9] = compound: Cc1ccc(-n2nc(C(C)(C)C)cc2NC(=O)Nc2ccc(OCCN3CCOCC3)c3ccccc23)cc1 [doramapimod]
In short: as §1

[10] = compound: Cc1ccc(C(=O)N(CCCN)[C@@H](c2nc3cc(Cl)ccc3c(=O)n2Cc2ccccc2)C(C)C)cc1 [ispinesib]
In short: as §1

[11] = compound: CON(C)C(=O)N1N=C(c2cc(F)ccc2F)S[C@@]1(CCCN)c1ccccc1 [filanesib]
In short: as §1

[12] = compound: COc1cc(Nc2ncc3c(n2)-c2ccc(Cl)cc2C(c2c(F)cccc2OC)=NC3)ccc1C(=O)O [alisertib]
In short: as §1

[13] = compound: COc1cc2ncnc(Nc3ccc(F)c(Cl)c3)c2cc1OCCCN1CCOCC1 [gefitinib]
In short: as §1

[14] = compound: COc1cccc2cc(-c3nc([C@H]4CC[C@H](C(=O)O)CC4)n4ncnc(N)c34)[nH]c12
In short: as §1

[15] = compound: CS(=O)(=O)N1CCN(Cc2cc3nc(-c4cccc5[nH]ncc45)nc(N4CCOCC4)c3s2)CC1 [pictilisib]
In short: as §1

[16] = compound: CS(=O)(=O)c1ccc(-c2cnc(N)c(C(=O)Nc3ccccc3)n2)cc1
In short: as §1

[17] = compound: Cc1cc(Nc2cc(CN3CCOCC3)c3nc(C)c(Cc4ccc(Cl)cc4F)n3n2)n[nH]1 [gandotinib]
In short: as §1

[18] = compound: Cc1cc(SCc2sc(-c3ccc(C(F)(F)F)cc3)nc2C)ccc1OCC(=O)O
In short: as §1

[19] = compound: C[C@H](Nc1ncnc2nc[nH]c12)c1cc2cccc(Cl)c2c(=O)n1-c1ccccc1 [duvelisib]
In short: as §1

[20] = compound: Cc1cc(Nc2cc(N3CCN(C)CC3)nc(Sc3ccc(NC(=O)C4CC4)cc3)n2)n[nH]1 [tozasertib]
In short: as §1

Target	log2 fold change [1]	log2 fold change [2]	log2 fold change [3]	log2 fold change [4]	log2 fold change [5]	log2 fold change [6]	log2 fold change [7]	log2 fold change [8]	log2 fold change [9]	log2 fold change [10]	log2 fold change [11]	log2 fold change [12]	log2 fold change [13]	log2 fold change [14]	log2 fold change [15]	log2 fold change [16]	log2 fold change [17]	log2 fold change [18]	log2 fold change [19]	log2 fold change [20]
XPC (UniProt Q01831)	inactive: -0.107	inactive: 0.051	inactive: -0.017	inactive: -0.226	inactive: -0.196	inactive: -0.041	inactive: -0.27	inactive: 0.403	inactive: -0.075	inactive: -0.441	–	–	–	–	–	–	–	–	–	–
YWHAB (UniProt P31946)	inactive: -0.028	inactive: 0.015	inactive: -0.053	inactive: -0.062	inactive: -0.016	inactive: 0.017	inactive: 0.025	inactive: -0.065	inactive: 0.022	inactive: 0.053	inactive: -0.044	inactive: 0.012	inactive: -0.001	inactive: 0.014	inactive: 0.002	inactive: 0.017	active: -0.25	inactive: 0.005	–	–
ZNF22 (UniProt P17026)	inactive: -0.226	inactive: -0.03	–	–	–	inactive: 0.044	–	inactive: 0.219	inactive: 0.103	inactive: 0.058	–	–	–	–	–	–	–	inactive: -0.09	inactive: 0.138	inactive: 0.12
ZDHHC14 (UniProt Q8IZN3)	inactive: 0	inactive: -0.065	inactive: 0.032	inactive: 0.072	inactive: 0.004	inactive: -0.029	inactive: 0.016	inactive: -0.136	inactive: -0.004	inactive: -0.005	inactive: 0.005	inactive: 0.038	inactive: 0.033	inactive: 0.136	–	inactive: -0.001	–	inactive: -0.043	inactive: 0.199	inactive: 0.025
YTHDC2 (UniProt Q9H6S0)	inactive: -0.166	–	inactive: 0.372	–	–	inactive: 0.015	inactive: -0.241	–	inactive: 0.299	–	–	inactive: -0.107	–	inactive: -0.279	inactive: 0.119	–	inactive: 0.301	–	–	–
ZEB1 isoform 2 (UniProt P37275)	inactive: -0.069	inactive: -0.004	inactive: 0.018	inactive: -0.03	inactive: -0.015	inactive: -0.027	–	inactive: -0.044	inactive: -0.046	–	inactive: -0.24	inactive: -0.088	inactive: 0.026	inactive: -0.022	inactive: -0.159	inactive: -0.058	inactive: -0.121	inactive: -0.065	inactive: -0.005	inactive: -0.234
ZFHX4 isoform 5 (UniProt Q86UP3)	inactive: 0.379	–	–	–	–	inactive: -0.112	–	–	inactive: 0.059	–	inactive: 0.057	–	inactive: 0.008	–	–	inactive: -0.032	–	–	–	inactive: 0.038
YIF1A (UniProt O95070)	inactive: -0.076	inactive: -0.056	inactive: 0.124	inactive: 0.057	inactive: -0.12	inactive: 0.183	–	inactive: -0.037	inactive: 0.039	inactive: 0.089	–	inactive: -0.012	inactive: 0.095	inactive: 0.003	inactive: -0.055	–	inactive: 0.08	inactive: -0.045	inactive: 0.069	inactive: 0.075
YBX1 (UniProt C9J5V9)	inactive: -0.033	–	inactive: 0.131	–	–	inactive: 0.028	–	–	inactive: 0.082	–	–	–	–	–	–	–	–	–	–	–
ZDHHC7 isoform 2 (UniProt Q9NXF8)	inactive: -0.022	inactive: -0.245	inactive: -0.013	inactive: -0.012	inactive: 0.034	inactive: -0.131	inactive: -0.037	inactive: -0.065	inactive: 0.113	inactive: 0.126	–	–	inactive: 0.062	–	inactive: 0.089	–	inactive: 0.034	inactive: -0.075	–	–

Already shown: entries from further up.
Target	log2 fold change [1]	log2 fold change [2]	log2 fold change [3]	log2 fold change [4]	log2 fold change [5]	log2 fold change [6]	log2 fold change [7]	log2 fold change [8]	log2 fold change [9]	log2 fold change [10]	log2 fold change [11]	log2 fold change [12]	log2 fold change [13]	log2 fold change [14]	log2 fold change [15]	log2 fold change [16]	log2 fold change [17]	log2 fold change [18]	log2 fold change [19]	log2 fold change [20]
YBX1 (UniProt C9J5V9)	inactive: -0.033	–	inactive: 0.131	–	–	inactive: 0.028	–	–	inactive: 0.082	–	–	–	–	–	–	–	–	–	–	–
ZDHHC7 isoform 2 (UniProt Q9NXF8)	inactive: -0.022	inactive: -0.245	inactive: -0.013	inactive: -0.012	inactive: 0.034	inactive: -0.131	inactive: -0.037	inactive: -0.065	inactive: 0.113	inactive: 0.126	–	–	inactive: 0.062	–	inactive: 0.089	–	inactive: 0.034	inactive: -0.075	–	–
